These are yes or no findings as the source states them, for the method shown. Binding seen in cells or lysates may run through a third protein. Here binding means that the protein was enriched with, or labelled near, the bait; the list need not be complete. For some assays here: No binding means not detected with the bait. One block for each binder: values may come before it.
What was measured:
[1] = molecular target: metabotropic glutamate receptor 5 (mouse (endogenous in hippocampus and cortex)) (UniProt Q3UVX5); assay: affinity purification with mass spectrometry; IP with anti-mGluR5 antibody from equal amounts (2 mg) of P2, microsome and P1 fractions of mouse hippocampus; SDS-PAGE and in-gel digestion, LC-MS/MS; empty bead control
[2] = molecular target: metabotropic glutamate receptor 5 (mouse (endogenous in hippocampus and cortex)) (UniProt Q3UVX5); assay: affinity purification with mass spectrometry; IP with anti-mGluR5 polyclonal antibody (10 ug, overnight, 4°C) from 1% n-dodecyl β-D-maltoside extracts (25 mM HEPES pH 7.4, 150 mM NaCl) of mouse hippocampus and cortex, Protein A/G agarose, FASP digestion, LC-MS/MS; mGluR5 knockout mice as negative control; filter: present in ≥3 of 4 WT IPs and ≥10-fold enriched
[3] = molecular target: metabotropic glutamate receptor 1, isoform a (mouse (endogenous in hippocampus and cortex)), P97772; assay: affinity purification with mass spectrometry; reverse IP with monoclonal anti-mGluR1a antibody (BD Biosciences, clone G209-488) from mouse hippocampus extract, LC-MS/MS; non-mGluR1 antibody as negative control; >10-fold enrichment; conditions: remark: other sources report otherwise
[4] = molecular target: metabotropic glutamate receptor 5 (mouse (endogenous in hippocampus and cortex)), Q3UVX5; assay: affinity purification with mass spectrometry; IP with anti-mGluR5 polyclonal antibody (10 ug, overnight, 4°C) from 1% n-dodecyl β-D-maltoside extracts (25 mM HEPES pH 7.4, 150 mM NaCl) of mouse hippocampus and cortex, Protein A/G agarose, FASP digestion, LC-MS/MS; mGluR5 knockout mice as negative control; filter: present in ≥3 of 4 WT IPs and ≥10-fold enriched; conditions: remark: other sources report otherwise
[5] = molecular target: metabotropic glutamate receptor 1, isoform a (mouse (endogenous in hippocampus and cortex)) (UniProt P97772); assay: affinity purification with mass spectrometry; reverse IP with monoclonal anti-mGluR1a antibody (BD Biosciences, clone G209-488) from mouse hippocampus extract, LC-MS/MS; non-mGluR1 antibody as negative control; >10-fold enrichment

Amino acid sequences for entries named in this document (tags omitted). Residues count along the entry.
UniProt Q3UVX5, residues 19-1203: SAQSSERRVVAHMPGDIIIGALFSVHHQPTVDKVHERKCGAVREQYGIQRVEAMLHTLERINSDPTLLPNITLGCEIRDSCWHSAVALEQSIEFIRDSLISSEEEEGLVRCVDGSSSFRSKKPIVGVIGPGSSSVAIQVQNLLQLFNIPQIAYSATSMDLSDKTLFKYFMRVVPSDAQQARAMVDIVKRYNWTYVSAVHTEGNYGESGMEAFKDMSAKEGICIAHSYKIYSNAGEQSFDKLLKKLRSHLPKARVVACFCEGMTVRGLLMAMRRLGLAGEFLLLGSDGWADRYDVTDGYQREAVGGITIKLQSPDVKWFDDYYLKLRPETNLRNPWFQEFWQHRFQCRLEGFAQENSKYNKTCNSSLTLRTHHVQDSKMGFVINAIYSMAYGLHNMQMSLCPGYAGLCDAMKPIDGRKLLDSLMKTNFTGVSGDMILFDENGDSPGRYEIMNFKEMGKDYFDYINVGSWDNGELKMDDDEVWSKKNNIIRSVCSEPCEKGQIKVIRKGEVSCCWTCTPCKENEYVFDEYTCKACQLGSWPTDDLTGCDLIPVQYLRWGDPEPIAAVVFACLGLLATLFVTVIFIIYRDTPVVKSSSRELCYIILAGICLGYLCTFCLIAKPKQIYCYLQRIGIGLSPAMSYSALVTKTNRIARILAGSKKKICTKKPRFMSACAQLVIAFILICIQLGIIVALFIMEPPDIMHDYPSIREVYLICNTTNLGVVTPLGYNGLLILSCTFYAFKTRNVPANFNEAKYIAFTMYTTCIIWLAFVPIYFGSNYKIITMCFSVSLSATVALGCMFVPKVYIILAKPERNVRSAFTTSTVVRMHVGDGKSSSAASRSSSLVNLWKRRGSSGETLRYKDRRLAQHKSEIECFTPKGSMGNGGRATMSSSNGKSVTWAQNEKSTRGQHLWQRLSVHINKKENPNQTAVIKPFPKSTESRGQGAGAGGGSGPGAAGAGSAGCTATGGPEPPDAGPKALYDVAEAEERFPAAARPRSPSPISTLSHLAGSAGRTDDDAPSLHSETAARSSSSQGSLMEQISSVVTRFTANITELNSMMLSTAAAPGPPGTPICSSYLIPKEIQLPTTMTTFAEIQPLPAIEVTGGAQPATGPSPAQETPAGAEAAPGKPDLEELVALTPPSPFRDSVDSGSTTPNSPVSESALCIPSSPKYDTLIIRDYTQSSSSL
UniProt P97772, residues 21-1199: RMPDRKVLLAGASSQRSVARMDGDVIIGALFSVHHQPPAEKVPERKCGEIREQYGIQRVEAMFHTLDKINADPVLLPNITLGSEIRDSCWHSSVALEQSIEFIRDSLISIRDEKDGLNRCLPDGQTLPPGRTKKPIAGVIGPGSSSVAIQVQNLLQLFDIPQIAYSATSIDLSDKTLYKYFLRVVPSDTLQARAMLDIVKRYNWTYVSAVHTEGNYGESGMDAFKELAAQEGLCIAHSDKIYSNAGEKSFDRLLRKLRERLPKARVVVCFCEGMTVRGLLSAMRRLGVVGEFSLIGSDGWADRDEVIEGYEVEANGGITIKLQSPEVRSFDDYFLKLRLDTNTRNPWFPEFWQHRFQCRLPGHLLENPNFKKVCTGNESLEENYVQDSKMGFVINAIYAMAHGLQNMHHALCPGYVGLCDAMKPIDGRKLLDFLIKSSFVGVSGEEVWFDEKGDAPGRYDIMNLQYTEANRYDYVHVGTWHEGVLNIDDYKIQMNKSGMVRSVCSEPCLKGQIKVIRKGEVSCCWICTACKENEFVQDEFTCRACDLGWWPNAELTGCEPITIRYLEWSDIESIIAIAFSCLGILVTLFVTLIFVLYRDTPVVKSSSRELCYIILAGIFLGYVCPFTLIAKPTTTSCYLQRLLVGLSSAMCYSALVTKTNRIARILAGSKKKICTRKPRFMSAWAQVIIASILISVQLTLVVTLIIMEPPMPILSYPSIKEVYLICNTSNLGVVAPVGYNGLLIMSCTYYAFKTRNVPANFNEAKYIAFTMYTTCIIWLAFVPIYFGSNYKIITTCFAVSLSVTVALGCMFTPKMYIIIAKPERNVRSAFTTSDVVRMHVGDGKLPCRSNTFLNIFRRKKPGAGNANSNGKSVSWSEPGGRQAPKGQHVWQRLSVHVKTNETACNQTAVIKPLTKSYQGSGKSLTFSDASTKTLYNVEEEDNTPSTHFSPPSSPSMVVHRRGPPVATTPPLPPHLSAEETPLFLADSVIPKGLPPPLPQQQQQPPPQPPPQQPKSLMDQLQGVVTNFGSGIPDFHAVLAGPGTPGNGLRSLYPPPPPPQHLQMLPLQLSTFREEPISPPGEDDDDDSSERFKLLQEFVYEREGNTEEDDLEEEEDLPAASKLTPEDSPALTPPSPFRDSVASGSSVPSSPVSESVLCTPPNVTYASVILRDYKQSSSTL

B1: Homer1 (protein, UniProt Q9Z2Y3 1-366)
chain: MGEQPIFSTRAHVFQIDPNTKKNWVPTSKHAVTVSYFYDSTRNVYRIISLDGSKAIINSTITPNMTFTKTSQKFGQWADSRANTVYGLGFSSEHHLSKFAEKFQEFKEAARLAKEKSQEKMELTSTPSQESAGGDLQSPLTPESINGTDDERTPDVTQNSEPRAEPTQNALPFPHSAGDRTQALSHASSAISKHWEAELATLKGNNAKLTAALLESTANVKQWKQQLAAYQEEAERLHKRVTELECVSSQANAVHSHKTELNQTVQELEETLKVKEEEIERLKQEIDNARELQEQRDSLTQKLQEVEIRNKDLEGQLSDLEQRLEKSQNEQEAFRSNLKTLLEILDGKIFELTELRDNLAKLLECS
binding [1]: binds | binding [2]: binds

B2: Homer1, Q9Z2Y3 1-366 (protein)
chain: B1 chain
binding [3]: no binding

Other lines, results leading:

binding [4]: binds | binding [3]: no binding
B3: Homer2, Q9QWW1 1-354 (protein)
chain: MGEQPIFTTRAHVFQIDPSTKKNWVPASKQAVTVSYFYDVTRNSYRIISVDGAKVIINSTITPNMTFTKTSQKFGQWADSRANTVFGLGFSSELQLTKFAEKFQEVREAARLARDKSQEKTETSSNHSQESGCETPSSTQASSVNGTDDEKASHASPADTHLKSENDKLKIALTQSAANVKKWEMELQTLRESNARLTTALQESAASVEQWKRQFSICRDENDRLRSKIEELEEQCSEINREKEKNTQLKRRIEELESEVRDKEMELKDLRKQSEIIPQLMSECEYVSEKLEAAERDNQNLEDKVRSLKTDIEESKYRQRHLKGELKSFLEVLDGKIDDLHDFRRGLSKLGTDN

binding [1]: binds | binding [2]: binds | binding [5]: binds
B4: Homer3 (protein, UniProt Q99JP6 1-356)
chain: MSTAREQPIFSTRAHVFQIDPTTKRNWIPAGKHALTVSYFYDATRNVYRIISIGGAKAIINSTVTPNMTFTKTSQKFGQWADSRANTVYGLGFASEQQLTQFAEKFQEVKEAARLAREKSQDGGEFTSTGLALASHQVPPSPLVSTNGPGEEKLFRSQSADTPGPTERERLKKMLSEGSVGEVQWEAEFFALQDSNQRLAGALREANAAATQWRQQLEVQRAEAELLRQRVAELEAQVAVEPVRAGEKEATSQSVEQLEARVQTKDQTLKNQSTGTREAPDTAEREETQQQVQDLETRNAELEQQLRSMECNLEEARAERERARAEVGRAAQLLDVRLFELSELREGLARLAEAAP
